This is a selection; strong and weak results do not stand in their true shares. For some assays here: At the low end of the ranking, values are background and their order means little. The list shows a part of the results. For some assays here: The source does not settle which construct or isoform was used.
What was measured:
HSF1 = HSF1 (UniProt Q00613); experiment: DAPPL (digital affinity profiling via proximity ligation, sequencing); details: 10 mM Tris-HCl pH 7.5, 50 mM NaCl, 1 mM DTT, 4% glycerol, room temperature, 30 min; GST-TFs on glutathione beads, 16-mer random dsDNA library, 0.1% …; high values mean tight binding; double strand, one strand shown; scale: fold enrichment (6-mer frequency, TF over GST control)
ELF2 = molecular target: T1, ELF2 (UniProt Q15723); experiment: as above; details: 10 mM Tris-HCl pH 7.5, 50 mM NaCl, 1 mM DTT, 4% glycerol, room temperature, 30 min; GST-TFs on glutathione beads, 16-mer random dsDNA library, 0.1% …; high values mean tight binding; double strand, one strand shown; scale: fold enrichment (6-mer frequency, TF over GST control)
T1 sequence: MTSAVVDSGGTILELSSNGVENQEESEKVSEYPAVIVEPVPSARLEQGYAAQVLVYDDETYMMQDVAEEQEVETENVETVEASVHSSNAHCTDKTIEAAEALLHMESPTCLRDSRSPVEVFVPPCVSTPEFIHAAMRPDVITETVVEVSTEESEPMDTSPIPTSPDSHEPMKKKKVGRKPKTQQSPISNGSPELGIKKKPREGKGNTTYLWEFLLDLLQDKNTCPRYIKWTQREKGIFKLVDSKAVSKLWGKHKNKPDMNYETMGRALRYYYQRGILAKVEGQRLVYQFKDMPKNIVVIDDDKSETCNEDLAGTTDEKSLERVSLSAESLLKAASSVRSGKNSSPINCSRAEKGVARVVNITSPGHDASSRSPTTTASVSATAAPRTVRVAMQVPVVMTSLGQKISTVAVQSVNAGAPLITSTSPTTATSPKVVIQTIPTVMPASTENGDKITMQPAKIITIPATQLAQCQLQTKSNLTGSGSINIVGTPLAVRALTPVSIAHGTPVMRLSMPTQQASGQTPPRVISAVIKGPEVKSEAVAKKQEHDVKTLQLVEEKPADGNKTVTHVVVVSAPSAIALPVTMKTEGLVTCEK

By UniProt entry, the sequences of proteins in these tests, tags left out. Where a name states a change or a piece, a line headed by the entry shows the natural chain unless it says otherwise.
UniProt Q00613: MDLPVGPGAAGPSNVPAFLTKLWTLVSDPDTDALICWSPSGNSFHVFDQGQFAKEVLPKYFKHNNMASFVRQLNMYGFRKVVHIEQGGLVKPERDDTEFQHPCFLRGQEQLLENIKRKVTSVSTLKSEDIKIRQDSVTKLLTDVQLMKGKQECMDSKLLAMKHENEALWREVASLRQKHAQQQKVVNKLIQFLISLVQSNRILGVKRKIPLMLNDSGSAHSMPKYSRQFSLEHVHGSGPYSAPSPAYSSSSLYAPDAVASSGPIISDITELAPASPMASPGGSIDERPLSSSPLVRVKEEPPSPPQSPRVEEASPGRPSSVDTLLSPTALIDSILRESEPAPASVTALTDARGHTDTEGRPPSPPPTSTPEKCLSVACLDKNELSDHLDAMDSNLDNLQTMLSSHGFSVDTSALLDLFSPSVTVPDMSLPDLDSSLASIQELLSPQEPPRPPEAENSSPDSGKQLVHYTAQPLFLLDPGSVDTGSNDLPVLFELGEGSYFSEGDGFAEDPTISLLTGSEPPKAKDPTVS

Row | Sequence | binding signal (HSF1) | binding signal (ELF2)
1 | GCCCAC | 0.813 | 1.07
2 | AGCACG | 0.786 | 0.908
3 | TGGCGA | 1.03 | 0.985
4 | CACTGA | 0.915 | 0.94
5 | GGTCCA | 0.722 | 0.883
6 | GATGTT | 1.18 | 1.27
7 | GACGTT | 0.847 | 0.888
8 | CACAAA | 1.02 | 1.06
9 | GCTAGC | 1.19 | 1.13
10 | TGGCTG | 0.863 | 0.994
11 | CTATGC | 1.28 | 1.34
12 | GCCTGC | 0.879 | 1.01
13 | TGTCAA | 0.853 | 0.977
14 | TAAAAA | 1.56 | 1.35
15 | CTCTCT | 1.69 | 1.5
16 | AGGCCC | 0.795 | 0.876
17 | CATGAC | 0.966 | 1.13
18 | CCGGAC | 0.841 | 1.75
19 | GCCCAA | 0.961 | 1.03
20 | CCTGGC | 0.79 | 1.01
21 | GCACCT | 0.944 | 1.01
22 | TTCCGA | 1.35 | 1.78
23 | TGTAAC | 0.994 | 1.22
24 | CATTCT | 2.56 | 1.28
25 | TGTTAG | 0.897 | 0.936
26 | TGTTTC | 1.43 | 2.01
27 | CCTTTT | 1.37 | 1.53

Individual results from the list:
binding signal (HSF1) with CCTGGC is entered as 0.79
binding signal (HSF1) with AGGCCC is entered as 0.795
binding signal (ELF2) with TGGCGA is entered as 0.985
binding signal (ELF2) with TAAAAA is entered as 1.35
binding signal (ELF2) with GCCTGC is entered as 1.01

Following part

Row | Sequence | binding signal (HSF1) | binding signal (ELF2)
28 | ATAATA | 1.67 | 1.22
29 | TCGTTG | 0.89 | 0.875
30 | CAGCAT | 0.977 | 0.957
31 | ACCGTT | 0.876 | 0.949
32 | ACCCGG | 0.798 | 2.69
33 | CCCCAA | 1.06 | 1.11
34 | ACCTCA | 0.992 | 1.13
35 | GCACTA | 1.11 | 1.13
36 | ATAAGC | 1.67 | 1.05
37 | CGGACC | 0.624 | 0.856
38 | ATGAGG | 0.756 | 0.966
39 | CGTTCC | 1.44 | 1.52
40 | ACCGGT | 0.696 | 0.972
41 | TGCCAC | 0.881 | 1.13
42 | TCAGCA | 0.953 | 0.97
43 | AAGTGC | 0.973 | 1.41
44 | CTCATC | 1.27 | 1.27
45 | CAACCC | 0.908 | 1.27
46 | TGGCAC | 1.03 | 1.09
47 | CAGCTC | 0.937 | 0.932
48 | GTATTG | 0.844 | 0.968
49 | GATCCA | 1.21 | 1.02
50 | GGATAT | 0.924 | 2.07
51 | AAACTG | 1.01 | 1.09
52 | ACAGTT | 0.713 | 0.847
53 | TACGGG | 0.948 | 0.903
54 | CGCTTA | 1.53 | 1.17

Row | Sequence | binding signal (HSF1) | binding signal (ELF2)
55 | CACTTT | 1.17 | 1.28
56 | CAGCAC | 0.825 | 0.893
57 | TGCCCT | 0.999 | 1.06
58 | TACCGG | 0.97 | 2.16
59 | GGCCTC | 0.873 | 1.05
60 | GTTGAT | 0.935 | 1.04
61 | GTTTTG | 0.948 | 1.2
62 | GCCCTA | 1.13 | 1.16
63 | ACGCGA | 1.04 | 0.813
64 | ATGTTA | 1.12 | 1.19
65 | CCATAC | 0.944 | 1.13
66 | AAAGGG | 0.982 | 1.12
67 | ACTGAT | 1.22 | 1.21
68 | GCCTAG | 1.21 | 0.871
69 | GTGGAA | 1.23 | 0.924
70 | TGTGGT | 0.775 | 1
71 | TCAACT | 1.2 | 1.27
72 | ACCATC | 1.14 | 1.07
73 | GTCCTG | 0.856 | 1.14
74 | CTGTCT | 1.22 | 1.35
75 | GTTTGT | 0.822 | 1.03
76 | GTCTAT | 0.943 | 1.01
77 | AGCATC | 1.02 | 1.02
78 | CATTGC | 0.889 | 1.04
79 | ACTACA | 0.981 | 1.16

Source: paper PMC7862700
